Assay results reported in the supplement of paper PMC10849652.
The other results are listed elsewhere or left out.

Chains of the proteins cited; added tags and fusions are not shown. Lines headed by an entry give the natural chain unless they say otherwise; changes in a name come on top.
UniProt Q5H9S7: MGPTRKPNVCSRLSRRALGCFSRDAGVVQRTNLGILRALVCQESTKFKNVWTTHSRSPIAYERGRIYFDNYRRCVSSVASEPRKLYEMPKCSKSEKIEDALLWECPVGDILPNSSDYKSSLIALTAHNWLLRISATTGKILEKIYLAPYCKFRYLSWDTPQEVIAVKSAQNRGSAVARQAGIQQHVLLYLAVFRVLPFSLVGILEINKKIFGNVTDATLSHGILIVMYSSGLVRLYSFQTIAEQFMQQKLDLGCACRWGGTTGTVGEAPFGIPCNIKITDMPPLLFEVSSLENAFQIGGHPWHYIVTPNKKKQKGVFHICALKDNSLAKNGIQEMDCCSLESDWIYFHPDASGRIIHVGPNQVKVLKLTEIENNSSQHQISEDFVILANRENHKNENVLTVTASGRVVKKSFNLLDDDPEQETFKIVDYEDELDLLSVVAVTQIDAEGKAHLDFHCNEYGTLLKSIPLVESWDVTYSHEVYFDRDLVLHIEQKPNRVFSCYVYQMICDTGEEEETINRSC
UniProt Q5D0E6: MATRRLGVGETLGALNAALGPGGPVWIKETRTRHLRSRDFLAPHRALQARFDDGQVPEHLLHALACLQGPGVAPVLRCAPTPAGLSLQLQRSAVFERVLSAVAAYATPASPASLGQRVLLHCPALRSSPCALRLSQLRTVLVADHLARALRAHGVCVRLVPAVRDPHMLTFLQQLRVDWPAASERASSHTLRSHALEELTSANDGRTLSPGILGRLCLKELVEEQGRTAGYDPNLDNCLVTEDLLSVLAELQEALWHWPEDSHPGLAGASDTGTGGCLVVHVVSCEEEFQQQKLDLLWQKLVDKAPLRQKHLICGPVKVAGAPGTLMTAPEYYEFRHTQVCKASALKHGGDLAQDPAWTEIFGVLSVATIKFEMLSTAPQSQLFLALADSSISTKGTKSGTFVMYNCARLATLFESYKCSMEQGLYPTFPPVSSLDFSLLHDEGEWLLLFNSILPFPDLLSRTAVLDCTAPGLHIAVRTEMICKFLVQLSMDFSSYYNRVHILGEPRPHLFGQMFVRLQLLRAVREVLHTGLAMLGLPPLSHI
UniProt Q96SQ9: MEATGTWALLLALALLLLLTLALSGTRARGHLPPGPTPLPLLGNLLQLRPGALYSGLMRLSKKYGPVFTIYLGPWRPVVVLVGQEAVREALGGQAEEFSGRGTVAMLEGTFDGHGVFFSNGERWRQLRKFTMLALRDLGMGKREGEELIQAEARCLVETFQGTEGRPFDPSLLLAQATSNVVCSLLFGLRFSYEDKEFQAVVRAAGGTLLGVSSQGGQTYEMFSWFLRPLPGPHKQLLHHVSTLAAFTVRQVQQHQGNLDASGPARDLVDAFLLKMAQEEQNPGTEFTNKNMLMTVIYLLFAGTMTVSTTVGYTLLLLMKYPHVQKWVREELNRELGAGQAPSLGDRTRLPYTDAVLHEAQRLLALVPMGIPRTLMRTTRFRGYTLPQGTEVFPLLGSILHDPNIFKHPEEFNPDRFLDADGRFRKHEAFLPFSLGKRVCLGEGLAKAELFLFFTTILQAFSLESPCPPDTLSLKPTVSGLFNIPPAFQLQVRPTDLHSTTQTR
UniProt Q9Y4D1, whole entry, looked up: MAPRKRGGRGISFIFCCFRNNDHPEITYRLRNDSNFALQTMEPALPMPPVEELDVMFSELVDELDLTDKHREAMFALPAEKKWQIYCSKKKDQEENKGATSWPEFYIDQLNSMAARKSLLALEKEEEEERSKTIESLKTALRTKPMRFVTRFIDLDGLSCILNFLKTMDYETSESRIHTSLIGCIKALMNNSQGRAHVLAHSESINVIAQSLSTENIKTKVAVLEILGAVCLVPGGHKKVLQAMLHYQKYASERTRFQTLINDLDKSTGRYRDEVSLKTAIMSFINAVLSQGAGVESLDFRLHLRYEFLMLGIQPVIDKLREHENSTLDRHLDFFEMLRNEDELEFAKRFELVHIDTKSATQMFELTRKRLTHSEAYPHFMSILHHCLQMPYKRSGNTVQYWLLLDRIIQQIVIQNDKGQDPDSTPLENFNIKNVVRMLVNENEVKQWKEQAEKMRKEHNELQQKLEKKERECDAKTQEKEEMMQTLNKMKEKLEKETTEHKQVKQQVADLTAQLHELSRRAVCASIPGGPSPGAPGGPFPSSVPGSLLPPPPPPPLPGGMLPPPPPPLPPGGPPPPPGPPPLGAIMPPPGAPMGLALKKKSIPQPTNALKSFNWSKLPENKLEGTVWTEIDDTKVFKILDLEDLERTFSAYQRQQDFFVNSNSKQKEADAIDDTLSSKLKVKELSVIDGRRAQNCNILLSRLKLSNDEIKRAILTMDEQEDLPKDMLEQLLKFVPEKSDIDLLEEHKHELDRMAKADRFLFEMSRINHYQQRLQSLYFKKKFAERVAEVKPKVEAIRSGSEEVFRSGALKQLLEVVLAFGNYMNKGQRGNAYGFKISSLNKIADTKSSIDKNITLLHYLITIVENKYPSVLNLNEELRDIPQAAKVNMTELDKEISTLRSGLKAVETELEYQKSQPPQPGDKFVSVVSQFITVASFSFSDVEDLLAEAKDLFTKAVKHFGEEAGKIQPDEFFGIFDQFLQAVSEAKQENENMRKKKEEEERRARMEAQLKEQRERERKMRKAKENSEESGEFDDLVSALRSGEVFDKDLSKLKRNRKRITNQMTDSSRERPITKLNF
UniProt Q9UIK4: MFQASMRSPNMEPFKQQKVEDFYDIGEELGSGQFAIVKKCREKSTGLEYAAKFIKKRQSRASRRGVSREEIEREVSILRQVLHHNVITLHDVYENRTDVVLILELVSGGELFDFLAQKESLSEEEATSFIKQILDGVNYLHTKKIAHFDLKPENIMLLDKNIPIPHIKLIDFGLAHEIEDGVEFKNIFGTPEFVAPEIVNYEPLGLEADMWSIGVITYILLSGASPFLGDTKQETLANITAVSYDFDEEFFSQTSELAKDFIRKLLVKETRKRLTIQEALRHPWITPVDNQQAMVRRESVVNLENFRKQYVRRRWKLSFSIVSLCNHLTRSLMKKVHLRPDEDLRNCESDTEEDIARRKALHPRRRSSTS
UniProt Q5H9U9: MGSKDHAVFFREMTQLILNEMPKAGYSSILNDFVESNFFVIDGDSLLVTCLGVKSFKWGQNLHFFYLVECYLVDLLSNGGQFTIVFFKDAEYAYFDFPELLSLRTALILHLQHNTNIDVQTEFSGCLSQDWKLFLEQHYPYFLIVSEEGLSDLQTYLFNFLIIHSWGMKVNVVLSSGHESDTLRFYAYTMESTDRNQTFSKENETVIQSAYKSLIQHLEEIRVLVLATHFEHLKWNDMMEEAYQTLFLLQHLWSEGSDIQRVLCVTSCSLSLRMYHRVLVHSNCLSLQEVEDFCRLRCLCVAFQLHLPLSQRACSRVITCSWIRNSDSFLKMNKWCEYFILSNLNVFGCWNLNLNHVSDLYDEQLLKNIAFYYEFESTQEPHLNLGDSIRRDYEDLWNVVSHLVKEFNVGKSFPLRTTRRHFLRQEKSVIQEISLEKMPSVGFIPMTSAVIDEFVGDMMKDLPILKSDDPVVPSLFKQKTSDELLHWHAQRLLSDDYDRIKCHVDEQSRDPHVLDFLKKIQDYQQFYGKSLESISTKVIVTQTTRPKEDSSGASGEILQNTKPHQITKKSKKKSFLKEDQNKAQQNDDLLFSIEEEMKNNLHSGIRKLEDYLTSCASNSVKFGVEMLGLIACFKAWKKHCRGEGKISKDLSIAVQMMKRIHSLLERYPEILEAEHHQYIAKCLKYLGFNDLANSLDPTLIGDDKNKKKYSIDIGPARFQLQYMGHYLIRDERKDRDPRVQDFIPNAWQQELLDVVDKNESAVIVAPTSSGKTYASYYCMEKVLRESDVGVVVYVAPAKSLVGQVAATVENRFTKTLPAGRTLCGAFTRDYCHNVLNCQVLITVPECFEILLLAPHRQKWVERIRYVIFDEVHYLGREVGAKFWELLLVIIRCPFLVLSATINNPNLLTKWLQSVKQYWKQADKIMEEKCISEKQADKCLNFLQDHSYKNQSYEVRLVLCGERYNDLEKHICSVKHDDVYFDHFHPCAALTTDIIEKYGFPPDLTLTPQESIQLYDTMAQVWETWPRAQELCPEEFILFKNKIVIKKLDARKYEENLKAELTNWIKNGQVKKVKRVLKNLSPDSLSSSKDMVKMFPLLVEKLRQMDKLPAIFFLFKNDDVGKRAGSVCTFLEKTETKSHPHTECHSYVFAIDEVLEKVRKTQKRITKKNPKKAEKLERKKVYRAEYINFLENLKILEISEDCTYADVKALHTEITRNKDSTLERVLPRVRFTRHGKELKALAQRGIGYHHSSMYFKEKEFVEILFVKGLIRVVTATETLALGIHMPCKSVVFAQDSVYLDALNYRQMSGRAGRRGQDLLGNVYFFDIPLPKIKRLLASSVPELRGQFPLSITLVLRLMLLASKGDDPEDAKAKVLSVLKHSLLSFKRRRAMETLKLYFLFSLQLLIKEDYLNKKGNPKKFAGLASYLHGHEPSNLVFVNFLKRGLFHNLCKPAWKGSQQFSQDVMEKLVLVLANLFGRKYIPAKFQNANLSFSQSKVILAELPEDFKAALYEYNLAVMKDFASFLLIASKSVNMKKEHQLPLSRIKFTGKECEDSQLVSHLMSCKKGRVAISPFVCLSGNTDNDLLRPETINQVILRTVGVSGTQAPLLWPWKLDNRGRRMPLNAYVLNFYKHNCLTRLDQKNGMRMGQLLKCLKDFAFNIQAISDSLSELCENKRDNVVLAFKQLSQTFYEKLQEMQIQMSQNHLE
UniProt Q96PD2: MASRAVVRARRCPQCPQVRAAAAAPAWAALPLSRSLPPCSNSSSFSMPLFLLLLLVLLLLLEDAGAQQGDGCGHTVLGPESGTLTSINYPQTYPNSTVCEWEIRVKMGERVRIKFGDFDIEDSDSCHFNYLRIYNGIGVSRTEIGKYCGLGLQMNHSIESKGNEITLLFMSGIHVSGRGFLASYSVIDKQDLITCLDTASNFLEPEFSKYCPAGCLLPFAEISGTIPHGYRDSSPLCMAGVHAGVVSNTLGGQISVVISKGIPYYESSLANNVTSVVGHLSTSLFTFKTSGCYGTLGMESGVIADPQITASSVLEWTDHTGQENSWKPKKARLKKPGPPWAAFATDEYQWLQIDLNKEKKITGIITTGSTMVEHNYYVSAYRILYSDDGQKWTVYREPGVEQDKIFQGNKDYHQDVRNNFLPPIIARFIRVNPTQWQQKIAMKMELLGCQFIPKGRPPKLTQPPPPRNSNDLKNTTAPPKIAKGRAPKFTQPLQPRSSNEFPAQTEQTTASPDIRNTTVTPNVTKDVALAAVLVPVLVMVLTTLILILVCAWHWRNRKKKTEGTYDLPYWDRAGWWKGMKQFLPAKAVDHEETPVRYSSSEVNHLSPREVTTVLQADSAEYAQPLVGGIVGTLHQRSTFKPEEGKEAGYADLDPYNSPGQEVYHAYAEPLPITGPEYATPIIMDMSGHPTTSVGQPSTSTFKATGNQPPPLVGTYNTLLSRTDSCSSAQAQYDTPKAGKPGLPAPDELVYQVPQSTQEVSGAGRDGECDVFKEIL

What was measured:
Experiment in all cases: log2 fold change, soluble protein after heating vs DMSO (PISA); higher = thermal stabilisation; K562 lysate, 10 uM; active = over 0.2 and 3.5 SD of the protein, either way, in both replicates (recomputed)
[1] = compound: Cc1cn(-c2cc(NC(=O)c3ccc(C)c(Nc4nccc(-c5cccnc5)n4)c3)cc(C(F)(F)F)c2)cn1 [nilotinib]
Method in brief: (§1)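 Pellets of K562 cells were dounce-homogenised in PBS pH 7.4 with 1 mM MgCl2, and the crude extract was held at 1 mg/mL protein for a 30 min treatment with 10 μM compound. Aliquots were heated for 3 min over 48°C-58°C and pooled before NP-40 was added to 0.5% at 4°C. The supernatant from 21,000xg for 90 min was quantified by TMTpro 16plex LC-MS/MS with channel sums equalised. Values are reported from duplicates as log-two fold change in thermal stability relative to solvent controls.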

[2] = compound: Cc1nc(Nc2n[nH]c3c2CN(C(=O)N[C@H](CN(C)C)c2ccccc2)C3(C)C)c2sccc2n1
Method in brief: as §1

[3] = compound: Cc1ncc(-c2ccnc(Nc3ccc(S(C)(=O)=O)cc3)n2)n1C(C)C
Method in brief: as §1

[4] = compound: Cn1cncc1[C@@](N)(c1ccc(Cl)cc1)c1ccc2c(c1)c(-c1cccc(Cl)c1)cc(=O)n2C [tipifarnib]
Method in brief: as §1

[5] = compound: NC(=O)c1cnc(N[C@@H]2CCCC[C@@H]2N)nc1Nc1cccc(-n2nccn2)c1
Method in brief: as §1

[6] = compound: NC1(c2ccc(-c3nc4ccn5c(=O)[nH]nc5c4cc3-c3ccccc3)cc2)CCC1
Method in brief: as §1

[7] = compound: Cc1nc(Nc2ncc(C(=O)Nc3c(C)cccc3Cl)s2)cc(N2CCN(CCO)CC2)n1 [dasatinib]
Method in brief: as §1

[8] = compound: Cn1cc(-c2ccc3c(c2)CCN3C(=O)Cc2cccc(C(F)(F)F)c2)c2c(N)ncnc21
Method in brief: as §1

[9] = compound: Cn1cc(CNCC2CCN(c3ncc(C(=O)NO)cn3)CC2)c2ccccc21 [quisinostat]
Method in brief: as §1

[10] = compound: NC(=O)Nc1cc(-c2cccc(F)c2)sc1C(=O)N[C@H]1CCCNC1
Method in brief: as §1

Measured: log2 fold change

DCAF17 (UniProt Q5H9S7)
inactive: [1] -0.292 | [2] -0.147 | [3] 0.073 | [4] 0.097 | [5] -0.012

DDX39B (UniProt H0Y400)
inactive: [5] -0.177

DALRD3 (UniProt Q5D0E6)
inactive: [5] -0.03 | [6] 0.207

CYP2S1 isoform 2 (UniProt Q96SQ9)
inactive: [7] 0.116 | [8] 0.093 | [9] 0.014 | [10] -0.135 | [5] 0.054 | [6] -0.056

DAAM1 (UniProt Q9Y4D1)
inactive: [7] 0.425 | [8] -0.174 | [9] 0.032 | [10] -0.054 | [5] -0.055 | [6] -0.216

DAPK2 isoform 2 (UniProt Q9UIK4)
inactive: [5] 0.021 | [6] 0.084

DDX60L (UniProt Q5H9U9)
inactive: [7] -0.016 | [8] 0.08 | [5] 0.046

2 neighbouring records already listed, for reference:
DAPK2 isoform 2 (UniProt Q9UIK4)
inactive: [5] 0.021 | [6] 0.084

DDX60L (UniProt Q5H9U9)
inactive: [7] -0.016 | [8] 0.08 | [5] 0.046

Later entries

DDX39B (UniProt F6R6M7)
inactive: [1] -0.278 | [2] 0.05 | [3] 0.016 | [4] 0.219

DCBLD2 isoform 2 (UniProt Q96PD2)
inactive: [7] 0.025 | [8] -0.213 | [5] -0.035
